Assay results as given in article PMC8529501 (iScience, 2021).
These are yes or no findings as the source states them, for the method shown. In cells and extracts the contact can be indirect. Some binding calls cover weakened binding; strength is not graded here.

What was measured:
HA-FKBP12 = HA-FKBP12 (UniProt P62942); experiment: co-IP; tagged proteins cotransfected in HEK293T; lysis in 20 mM Tris-HCl pH 7.4, 150 mM NaCl, 0.5% NP-40, 10% glycerol, 1 mM DTT; tag IP, washed with PBS, Western blot; cells untreated or treated with rapamycin, amino acids or serum, NAM or TSA as in the legends
FLAG-FKBP12 = FLAG-FKBP12 (UniProt P62942); experiment: as above
FKBP12-C-Luc = FKBP12-C-Luc (UniProt P62942); experiment: split reporter; split luciferase: FKBP12 fused to C-Luc, FRB or Rheb fused to N-Luc, cotransfected in HEK293T; rapamycin treatment for 6 h; with or without TSA or NAM pretreatment for 2 h; luciferase activity

Substance | binding (HA-FKBP12) | binding (FLAG-FKBP12) | binding (FKBP12-C-Luc)
Flag-Rheb (from UniProt Q15382 1-184) | binds |  | 
Flag-Rheb-K8Q (from UniProt Q15382 1-184) | binds |  | 
Flag-Rheb-K8R (from UniProt Q15382 1-184) | binds |  | 
Myc-Rheb (from UniProt Q15382 1-184) | binds | binds | 
Rheb-N-Luc (from UniProt Q15382 1-184) |  |  | binds
